The text below walks through data of publication doi:10.1101/2020.09.06.284745.

In assay [1] the target is T1, RAPTOR1B (Regulatory-associated protein of TOR 1B) (Arabidopsis thaliana) (UniProt Q93YQ1).
T1 sequence: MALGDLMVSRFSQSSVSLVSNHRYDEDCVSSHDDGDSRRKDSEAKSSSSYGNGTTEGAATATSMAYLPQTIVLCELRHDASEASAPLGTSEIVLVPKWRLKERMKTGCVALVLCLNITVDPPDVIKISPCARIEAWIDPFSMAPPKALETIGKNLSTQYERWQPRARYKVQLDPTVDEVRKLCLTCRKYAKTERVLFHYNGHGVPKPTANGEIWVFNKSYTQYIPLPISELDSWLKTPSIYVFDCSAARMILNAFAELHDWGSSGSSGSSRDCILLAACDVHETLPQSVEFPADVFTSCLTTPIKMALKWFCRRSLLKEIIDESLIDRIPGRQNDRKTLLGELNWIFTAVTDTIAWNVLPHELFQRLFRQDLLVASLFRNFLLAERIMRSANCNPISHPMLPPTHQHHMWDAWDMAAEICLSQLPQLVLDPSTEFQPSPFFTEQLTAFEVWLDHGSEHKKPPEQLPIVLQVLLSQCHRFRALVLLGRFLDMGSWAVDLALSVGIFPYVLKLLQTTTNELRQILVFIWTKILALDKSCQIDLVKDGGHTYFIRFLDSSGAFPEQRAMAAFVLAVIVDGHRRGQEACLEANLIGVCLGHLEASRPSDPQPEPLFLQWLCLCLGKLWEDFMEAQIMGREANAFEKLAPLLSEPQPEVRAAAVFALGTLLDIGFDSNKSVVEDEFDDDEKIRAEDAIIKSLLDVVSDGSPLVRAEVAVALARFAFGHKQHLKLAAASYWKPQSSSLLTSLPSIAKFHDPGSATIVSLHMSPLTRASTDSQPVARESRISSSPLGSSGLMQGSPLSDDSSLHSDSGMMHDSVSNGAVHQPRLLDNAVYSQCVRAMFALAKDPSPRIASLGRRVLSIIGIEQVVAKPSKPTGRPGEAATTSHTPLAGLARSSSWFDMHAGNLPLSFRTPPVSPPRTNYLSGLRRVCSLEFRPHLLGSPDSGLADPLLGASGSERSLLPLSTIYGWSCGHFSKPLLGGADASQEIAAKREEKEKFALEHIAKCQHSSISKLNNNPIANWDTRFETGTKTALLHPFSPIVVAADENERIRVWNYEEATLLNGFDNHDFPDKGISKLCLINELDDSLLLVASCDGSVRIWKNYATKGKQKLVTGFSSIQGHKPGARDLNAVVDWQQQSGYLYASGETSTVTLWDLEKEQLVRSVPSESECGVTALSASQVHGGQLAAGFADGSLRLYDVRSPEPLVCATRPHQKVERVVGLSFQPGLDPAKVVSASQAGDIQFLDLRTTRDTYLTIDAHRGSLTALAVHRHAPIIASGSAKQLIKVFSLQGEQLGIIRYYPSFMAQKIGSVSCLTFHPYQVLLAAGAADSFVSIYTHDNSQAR
Nature of the assay: two-hybrid.

Assay [2] concerns the target T2, SnRK1α1 Ubiquitin-associated domain (UBA) (Arabidopsis thaliana) (UniProt Q38997).
T2 sequence: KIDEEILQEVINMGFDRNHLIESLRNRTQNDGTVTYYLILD
Nature of the assay: two-hybrid.

These are yes or no findings as the source states them, for the method shown. Some binding calls cover weakened binding; strength is not graded here.

B1: FCS-Like Zinc Finger 8 (FLZ8) (protein, UniProt Q8L471 1-267)
chain: MLKKRSRSKQALMAETNQSQNQKQSKTTPFPRLFTAFSSFKSFTENDAVASPTSILDTKPFSVLKNPFGSDNPKTQEPETRLKLEPKRIGLAIVDSLIQDETPEPGPRSGTILFGSQLRIRVPDSPISSSDFGIKTRNSQPETKKPGSESGLGSPRIISGYFPASDMELSEDYTCVTCHGPNPRTIHIFDNCIVESQPGVVFFRSSDPVNESDSDYSPPDSFLSCCCNCKKSLGPRDDIFMYRGDRAFCSSECRSIEMMMSEENDTK
Turning to B1, the binding entry in assay [1] and in assay [2] was “binds” in each case.
